Laboratory results: PubChem BioAssay AID1259405 (NCATS, 2018)
Test: 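Silenced genes that increase secreted GFP made by CHO cells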 (primary screen). System: Chinese hamster CHO-K1 ovary cells with stable secreted eGFP expression. Reagents: single siRNA against mouse genes, 0.8 pmol siRNA per well (2 µl of 400 nM stock). Duration: 3 days. Measured: 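Per-well intracellular GFP measured by laser scanning cytometry, plus viability from ATP luminescence, each relative to plate median of non-targeting control wells, in %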. Scale: GFP, % of control: higher = more GFP per well, higher productivity; viability (ATP), % of control: higher = more viable cells (more ATP). Active means: 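Called active when intracellular GFP, relative to negative control, is at or above 120%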.
In all, the deposit lists about 50,000 reagents; below is a part drawn at random. Over the whole deposit, about 4,000 (8%) got an active call. 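Mouse siRNA library applied to hamster cells; one well for each siRNA.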 A number with no mark means an inactive call. The numbers tell different reagents against one gene apart.

| gene | reagent no. | GFP, % of control | viability (ATP), % of control |
| --- | --- | --- | --- |
| Irf2 | 1 | 65.1 | 63.1 |
| Irf2 | 2 | 85 | 88.6 |
| Irf2 | 3 | 75.6 | 98.9 |
| Cd70 | 1 | 64.3 | 64.8 |
| Cd70 | 2 | 95.8 | 81.3 |
| Cd70 | 3 | 120 | 125 |
| Cyp2d22 | 1 | 66 | 48.7 |
| Cyp2d22 | 2 | 69.5 | 60.5 |
| Cyp2d22 | 3 | 27.3 | 43.6 |
| Zcchc12 | 1 | 50.8 | 74 |
| Zcchc12 | 2 | 46.1 | 72.5 |
| Zcchc12 | 3 | 73.8 | 114 |
| Ngb | 1 | 72.1 | 93.2 |
| Ngb | 2 | 70.5 | 55.7 |
| Ngb | 3 | 55.9 | 37.9 |
| Eif2b2 | 1 | 86.2 | 74.8 |
| Eif2b2 | 2 | 79.1 | 104 |
| Eif2b2 | 3 | 63.5 | 64.2 |
| Slc25a39 | 1 | 42.2 | 53.9 |
| Slc25a39 | 2 | 82.1 | 109 |
| Slc25a39 | 3 | 110 | 88.7 |
| Arf4 | 1 | 67 | 82.3 |
| Arf4 | 2 | 82.9 | 109 |
| Arf4 | 3 | 72 | 93.9 |
| Pramel32 | 1 | 81.9 | 91.3 |
| Pramel32 | 2 | 86.6 | 80.3 |
| Pramel32 | 3 | 134 (active) | 126 |
| Bcas1 | 1 | 76.3 | 70 |
| Bcas1 | 2 | 99.3 | 118 |
| Bcas1 | 3 | 87.3 | 79.9 |
| Nudcd2 | 1 | 51.1 | 53 |
| Nudcd2 | 2 | 77.9 | 83.7 |
| Nudcd2 | 3 | 61 | 59.1 |
| Ctso | 1 | 71.4 | 100 |
| Ctso | 2 | 73.4 | 59.4 |
| Ctso | 3 | 76.4 | 60.2 |
| Tas2r134 | 1 | 62.4 | 51.4 |
| Tas2r134 | 2 | 90.8 | 78.8 |
| Tas2r134 | 3 | 69.3 | 68.6 |
| Ccn4 | 1 | 58.2 | 85.8 |
| Ccn4 | 2 | 115 | 55.3 |
| Ccn4 | 3 | 97.6 | 126 |
| 4930483J18Rik | 1 | 122 (active) | 56.7 |
| 4930483J18Rik | 2 | 80.6 | 87.8 |
| 4930483J18Rik | 3 | 84.7 | 88.3 |
| Or10al5 | 1 | 108 | 81.7 |
| Or10al5 | 2 | 98.5 | 100 |
| Or10al5 | 3 | 52.8 | 30.2 |
| Socs6 | 1 | 91.8 | 94.8 |
| Socs6 | 2 | 52.6 | 69.1 |
| Socs6 | 3 | 63 | 82.7 |
| Naa60 | 1 | 56.6 | 79.1 |
| Naa60 | 2 | 84.3 | 79.2 |
| Naa60 | 3 | 87.6 | 34.9 |
| Rpl36al | 1 | 84.4 | 72.3 |
| Rpl36al | 2 | 100 | 87.7 |
| Rpl36al | 3 | 45 | 44.2 |
| Adap1 | 1 | 108 | 86.2 |
| Adap1 | 2 | 190 (active) | 119 |
| Adap1 | 3 | 68.1 | 82.4 |
| Gzme | 1 | 180 (active) | 92.6 |
| Gzme | 2 | 65.8 | 53.4 |
| Gzme | 3 | 69.7 | 69.6 |
| Or2y1d | 1 | 111 | 51.9 |
| Or2y1d | 2 | 62.4 | 51.3 |
| Or2y1d | 3 | 48.6 | 110 |
| F13a1 | 1 | 77.5 | 76.4 |
| F13a1 | 2 | 84.5 | 71.4 |
| F13a1 | 3 | 115 | 98.7 |
| Trh | 1 | 56.3 | 63.4 |
| Trh | 2 | 64.4 | 86.9 |
| Trh | 3 | 103 | 58.1 |
| 4930412M03Rik | 1 | 89.7 | 49.3 |
| 4930412M03Rik | 2 | 77.2 | 37.4 |
| 4930412M03Rik | 3 | 90.4 | 77.5 |
| Fam174c | 1 | 80.4 | 74 |
| Fam174c | 2 | 73.4 | 53.1 |
| Fam174c | 3 | 76 | 95.3 |
| Kcnq3 | 1 | 83.9 | 76.9 |
| Kcnq3 | 2 | 47.5 | 64.5 |
| Kcnq3 | 3 | 81.6 | 57.3 |
| Tas2r107 | 1 | 71 | 89.7 |
| Tas2r107 | 2 | 91.1 | 82.4 |
| Tas2r107 | 3 | 71.1 | 66 |

8 of these entries, reformatted:
gene,reagent no.,"GFP, % of control","viability (ATP), % of control"
Zcchc12,1,50.8,74
Zcchc12,2,46.1,72.5
Zcchc12,3,73.8,114
Ngb,1,72.1,93.2
Ngb,2,70.5,55.7
Ngb,3,55.9,37.9
Eif2b2,1,86.2,74.8
Eif2b2,2,79.1,104
